PubChem BioAssay AID743454, Peter MacCallum Cancer Centre | 2014
In all, the deposit lists about 18,000 reagents; shown is an unselected part. 450 of all reagents (2.5%) were called active. 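Single biological run; no consistent viability z cut-off exists, so the class columns, not z-scores, define the calls.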 No sequences are given here.

- Purpose: 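Genes whose loss kills vorinostat-resistant colon cancer cells under vorinostat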 (primary screen)
- System: human HCT116-VR colon cancer cells, selected for vorinostat resistance
- Knock-down reagent: siRNA pool against human genes, 40 nM siRNA pool
- Time to read-out: vorinostat for 24 h, read-out about 72 h after transfection
- Treatment: vorinostat at 2.5 µM final
- Measurement: 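Cell viability by CellTiter-Fluor and caspase 3/7 activity by luminescence, each scaled to mock wells per plate, duplicates averaged, then robust z-scored over all plates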
- Direction: viability robust z-score: higher = more viable cells than screen typical; caspase robust z-score: higher = more caspase 3/7 activity than screen typical
- Active means: 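Hits are knock-downs in viability class RV1/RV2 or caspase class CA1/CA2, excluding ones that killed cells in the no-drug cell-count arm; hits then retested with single siRNAs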

gene	viability hit class	caspase hit class	viability robust z-score	caspase robust z-score	outcome
KIF24	no change	no change	0.12	-0.94	inactive
DORIP1	no change	no change	-0.5	0.35	inactive
EBF1	no change	no change	-0.62	-0.91	inactive
DDX19A	no change	no change	-2.36	3.46	inactive
MEP1A	no change	no change	0.08	-0.07	inactive
STC2	no change	no change	0.27	-0.47	inactive
CINP	no change	no change	-1.17	2.61	inactive
ATF7IP	no change	no change	0.59	0.36	inactive
TMEM37	no change	no change	-0.12	0.35	inactive
CBLB	no change	no change	-0.8	4.23	inactive
SERPINA4	no change	no change	0.29	0.33	inactive
FASTKD2	no change	no change	0.23	2.38	inactive
USB1	no change	no change	0.12	-0.21	inactive
SLC35B2	no change	no change	1.34	-0.46	inactive
NDFIP1	no change	no change	0.1	0.58	inactive
B3GNT6	no change	no change	-2.58	4.75	inactive
EXOC8	no change	no change	-0.18	3.58	inactive
PALS2	no change	no change	0.82	-0.76	inactive
PITPNA	no change	no change	-0.14	-0.62	inactive
RIOX1	no change	no change	0.22	-0.36	inactive
RGS8	no change	no change	1.66	-0.74	inactive
NSUN3	no change	no change	-0.6	-0.6	inactive
ANKRD36	no change	no change	0.84	1.6	inactive
ZNF7	no change	no change	-0.07	-0.18	inactive
ADCY1	no change	no change	-0.16	2.07	inactive
STUB1	no change	no change	-0.04	0.6	inactive
FAABTP	no change	no change	0.46	-0.32	inactive
TMED2	no change	no change	0.19	-0.26	inactive
TRAPPC8	no change	no change	0.22	-0.6	inactive
KRTAP10-9	no change	no change	-0.5	2.41	inactive
CD3D	no change	no change	0.29	2.15	inactive
ADGRF2P	no change	no change	-0.85	0.36	inactive
CALCB	no change	no change	0.85	2.27	inactive
TAS2R3	no change	no change	1.2	0.64	inactive
RALGPS2	no change	no change	1.42	1.04	inactive
DDR2	no change	no change	-0.42	-1.02	inactive
LYZL1	no change	no change	0.57	-0.48	inactive
ACD	no change	no change	0.24	-0.17	inactive
ZNF746	no change	no change	0.28	0.44	inactive
PTGES	no change	no change	-0.4	-0.88	inactive
SLC4A11	no change	no change	1.36	-1.16	inactive
LOXL1	no change	no change	0.3	0.36	inactive
PTDSS2	no change	no change	-0.41	0.2	inactive
GGTLC2	no change	no change	-1.24	1.38	inactive
NUDT9	no change	no change	-0.11	0.62	inactive
TGIF2LX	no change	no change	1.12	0.8	inactive
MFN2	no change	no change	-1.12	-0.8	inactive
TTC19	no change	no change	-0.29	0.18	inactive
SEC14L4	no change	no change	-1.6	1.02	inactive
ARTN	no change	no change	-1.1	-0.79	inactive
TMEM128	no change	no change	-0.48	-1.17	inactive
SOX2	no change	no change	0.8	-0.9	inactive
KLHL24	no change	no change	-0.59	-0.21	inactive
TAAR8	no change	no change	0.9	-0.67	inactive
DNAJB13	no change	no change	-0.64	0.22	inactive
THOC1	no change	no change	-1.22	4.58	inactive
CIAPIN1	no change	no change	-0.32	0.36	inactive

Part of the list above, reduced to “caspase robust z-score”:
TMEM128	-1.17
SOX2	-0.9
KLHL24	-0.21
TAAR8	-0.67
